Laboratory results: PMC3778836
Numbering of substitutions follows the chain as printed. Results are given in words; binding and its absence hold for the method and conditions named. In cells and extracts the contact can be indirect. Some results given as binding are weak or reduced against the parent protein; the word gives no strength. Where a sequence is shown, tags or fusion partners need not be part of it.

The chains behind the UniProt entries cited, without tags or fusion partners.
UniProt Q13535: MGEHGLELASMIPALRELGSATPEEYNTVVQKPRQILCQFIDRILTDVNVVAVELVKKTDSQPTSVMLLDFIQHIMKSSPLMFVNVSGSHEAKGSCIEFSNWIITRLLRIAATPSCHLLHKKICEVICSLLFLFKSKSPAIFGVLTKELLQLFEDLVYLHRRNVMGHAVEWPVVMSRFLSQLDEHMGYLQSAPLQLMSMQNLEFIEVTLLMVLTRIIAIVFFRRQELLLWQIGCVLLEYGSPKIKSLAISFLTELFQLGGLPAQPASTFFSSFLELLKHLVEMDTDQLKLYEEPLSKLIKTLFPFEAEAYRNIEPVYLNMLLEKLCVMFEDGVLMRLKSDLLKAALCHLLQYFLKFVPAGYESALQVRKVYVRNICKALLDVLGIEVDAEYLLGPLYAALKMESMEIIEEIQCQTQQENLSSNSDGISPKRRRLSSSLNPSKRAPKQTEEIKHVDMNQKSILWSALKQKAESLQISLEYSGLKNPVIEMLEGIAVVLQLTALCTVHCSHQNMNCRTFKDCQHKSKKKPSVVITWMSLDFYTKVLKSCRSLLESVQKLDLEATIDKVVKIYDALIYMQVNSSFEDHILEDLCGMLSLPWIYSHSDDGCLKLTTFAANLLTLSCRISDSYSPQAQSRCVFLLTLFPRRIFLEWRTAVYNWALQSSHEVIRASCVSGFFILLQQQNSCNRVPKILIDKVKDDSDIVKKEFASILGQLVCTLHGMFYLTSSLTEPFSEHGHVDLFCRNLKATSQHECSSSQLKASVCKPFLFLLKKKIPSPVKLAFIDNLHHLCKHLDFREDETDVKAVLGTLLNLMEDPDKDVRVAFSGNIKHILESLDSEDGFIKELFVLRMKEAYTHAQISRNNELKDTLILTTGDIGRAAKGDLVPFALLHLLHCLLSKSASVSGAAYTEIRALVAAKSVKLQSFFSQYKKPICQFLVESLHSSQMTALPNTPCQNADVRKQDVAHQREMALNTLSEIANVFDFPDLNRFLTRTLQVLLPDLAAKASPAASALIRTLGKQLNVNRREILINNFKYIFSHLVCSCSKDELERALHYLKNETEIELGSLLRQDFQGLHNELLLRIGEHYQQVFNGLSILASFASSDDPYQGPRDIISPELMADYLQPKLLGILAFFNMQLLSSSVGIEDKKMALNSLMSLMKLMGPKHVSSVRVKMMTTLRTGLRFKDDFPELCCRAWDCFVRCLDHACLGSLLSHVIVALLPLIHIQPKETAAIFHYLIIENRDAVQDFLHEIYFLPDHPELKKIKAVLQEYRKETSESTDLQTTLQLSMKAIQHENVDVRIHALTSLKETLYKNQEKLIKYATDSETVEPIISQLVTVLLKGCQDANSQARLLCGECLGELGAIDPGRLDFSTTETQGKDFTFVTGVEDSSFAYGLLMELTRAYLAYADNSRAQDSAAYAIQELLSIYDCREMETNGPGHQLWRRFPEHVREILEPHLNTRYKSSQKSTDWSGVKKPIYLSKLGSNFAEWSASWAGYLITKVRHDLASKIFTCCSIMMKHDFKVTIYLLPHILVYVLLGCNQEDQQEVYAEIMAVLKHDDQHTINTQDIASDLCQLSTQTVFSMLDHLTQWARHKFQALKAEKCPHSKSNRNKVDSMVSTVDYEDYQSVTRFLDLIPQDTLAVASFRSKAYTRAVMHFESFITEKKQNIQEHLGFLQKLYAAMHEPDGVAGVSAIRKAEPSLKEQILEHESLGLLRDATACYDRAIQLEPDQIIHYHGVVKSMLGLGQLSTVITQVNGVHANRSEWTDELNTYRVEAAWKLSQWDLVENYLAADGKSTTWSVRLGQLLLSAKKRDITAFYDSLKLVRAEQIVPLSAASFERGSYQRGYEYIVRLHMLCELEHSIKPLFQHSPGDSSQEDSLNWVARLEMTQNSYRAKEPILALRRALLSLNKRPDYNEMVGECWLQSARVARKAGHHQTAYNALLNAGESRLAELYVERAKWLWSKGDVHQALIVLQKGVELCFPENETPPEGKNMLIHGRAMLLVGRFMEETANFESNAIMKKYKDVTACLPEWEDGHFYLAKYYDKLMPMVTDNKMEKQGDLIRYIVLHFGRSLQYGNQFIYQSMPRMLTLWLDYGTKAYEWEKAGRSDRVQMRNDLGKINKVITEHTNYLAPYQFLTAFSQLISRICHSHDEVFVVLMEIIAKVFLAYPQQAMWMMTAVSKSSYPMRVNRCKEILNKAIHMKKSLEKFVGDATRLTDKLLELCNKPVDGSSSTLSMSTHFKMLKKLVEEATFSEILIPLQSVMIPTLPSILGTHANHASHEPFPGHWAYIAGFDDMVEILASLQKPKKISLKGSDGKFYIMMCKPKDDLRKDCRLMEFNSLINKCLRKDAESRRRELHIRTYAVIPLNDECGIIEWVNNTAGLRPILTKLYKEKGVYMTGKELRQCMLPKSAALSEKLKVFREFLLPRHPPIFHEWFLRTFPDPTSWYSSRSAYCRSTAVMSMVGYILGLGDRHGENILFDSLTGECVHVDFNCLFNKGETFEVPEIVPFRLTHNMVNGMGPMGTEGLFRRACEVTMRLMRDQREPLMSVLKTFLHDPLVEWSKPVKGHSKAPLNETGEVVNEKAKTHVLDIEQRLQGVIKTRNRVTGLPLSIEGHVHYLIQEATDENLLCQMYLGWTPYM

T1: FLAG-HA epitope-tagged HELQ (human) (UniProt Q8TDG4)
T1 sequence: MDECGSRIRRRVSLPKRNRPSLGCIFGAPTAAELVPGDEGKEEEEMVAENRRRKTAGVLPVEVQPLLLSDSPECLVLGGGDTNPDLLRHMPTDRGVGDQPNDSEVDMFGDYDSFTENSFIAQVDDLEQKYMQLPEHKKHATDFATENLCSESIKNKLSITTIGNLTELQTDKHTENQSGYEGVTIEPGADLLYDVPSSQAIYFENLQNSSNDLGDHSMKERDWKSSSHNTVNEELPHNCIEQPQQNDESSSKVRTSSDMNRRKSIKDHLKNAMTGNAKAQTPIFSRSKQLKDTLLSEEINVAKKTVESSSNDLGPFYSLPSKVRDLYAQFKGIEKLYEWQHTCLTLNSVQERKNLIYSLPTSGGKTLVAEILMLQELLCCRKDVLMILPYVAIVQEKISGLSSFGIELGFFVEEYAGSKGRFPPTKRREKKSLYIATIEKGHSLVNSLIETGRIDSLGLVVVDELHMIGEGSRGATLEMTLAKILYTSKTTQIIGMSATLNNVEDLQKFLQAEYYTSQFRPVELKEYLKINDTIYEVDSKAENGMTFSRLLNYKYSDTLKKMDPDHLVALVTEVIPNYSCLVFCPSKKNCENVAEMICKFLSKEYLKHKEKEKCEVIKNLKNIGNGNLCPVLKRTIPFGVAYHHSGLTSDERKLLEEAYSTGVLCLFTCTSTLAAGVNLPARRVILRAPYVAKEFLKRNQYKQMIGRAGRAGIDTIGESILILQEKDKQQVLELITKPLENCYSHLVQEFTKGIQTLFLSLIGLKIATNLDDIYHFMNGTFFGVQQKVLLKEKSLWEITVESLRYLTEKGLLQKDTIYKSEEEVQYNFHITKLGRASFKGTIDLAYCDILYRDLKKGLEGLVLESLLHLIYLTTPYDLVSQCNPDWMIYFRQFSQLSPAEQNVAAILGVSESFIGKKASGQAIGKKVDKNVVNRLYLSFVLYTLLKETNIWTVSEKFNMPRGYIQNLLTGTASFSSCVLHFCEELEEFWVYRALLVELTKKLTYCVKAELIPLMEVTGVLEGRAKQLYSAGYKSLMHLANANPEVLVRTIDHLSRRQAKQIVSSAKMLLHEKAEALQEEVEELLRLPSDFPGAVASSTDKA

T2: HELQ K365M (human) (UniProt Q8TDG4)
T2 sequence: T1 sequence with K365M

T3: GFP-tagged HELQ (HEK293T) (human) (UniProt Q8TDG4)
T3 sequence: T1 sequence

T4: FLAG-HA epitope-tagged XRCC2 (UniProt O43543)
T4 sequence: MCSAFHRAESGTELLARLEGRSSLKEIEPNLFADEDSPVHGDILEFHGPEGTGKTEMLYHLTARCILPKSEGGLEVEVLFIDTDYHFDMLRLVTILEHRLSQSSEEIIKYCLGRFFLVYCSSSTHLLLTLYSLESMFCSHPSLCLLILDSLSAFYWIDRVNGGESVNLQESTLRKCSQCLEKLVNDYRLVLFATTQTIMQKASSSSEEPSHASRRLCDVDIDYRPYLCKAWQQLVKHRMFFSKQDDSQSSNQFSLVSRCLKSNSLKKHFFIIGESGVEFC

B1: XRCC2 (endogenous, HeLa S3) (protein, UniProt O43543 1-280)
chain: T4 sequence
B2: HELQ (endogenous, HeLa S3) (enzyme, UniProt Q8TDG4 1-1101)
chain: T1 sequence
B3: DsRed-Monomer-tagged RAD51B (HEK293T) (protein, UniProt O15315 1-384)
chain: MGSKKLKRVGLSQELCDRLSRHQILTCQDFLCLSPLELMKVTGLSYRGVHELLCMVSRACAPKMQTAYGIKAQRSADFSPAFLSTTLSALDEALHGGVACGSLTEITGPPGCGKTQFCIMMSILATLPTNMGGLEGAVVYIDTESAFSAERLVEIAESRFPRYFNTEEKLLLTSSKVHLYRELTCDEVLQRIESLEEEIISKGIKLVILDSVASVVRKEFDAQLQGNLKERNKFLAREASSLKYLAEEFSIPVILTNQITTHLSGALASQADLVSPADDLSLSEGTSGSSCVIAALGNTWSHSVNTRLILQYLDSERRQILIAKSPLAPFTSFVYTIKEEGLVLQETTFCSVTQAELNWAPEILPPQPPEQLGLQMCHHTQLIF
B4: Flag-tagged XRCC2 (HEK293T) (protein, UniProt O43543 1-280)
chain: T4 sequence
B5: XRCC2 (endogenous, HEK293T) (protein, UniProt O43543 1-280)
chain: T4 sequence
B6: RAD51B (protein, UniProt O15315 1-384)
chain: B3 chain
B7: RAD51C (protein, UniProt O43502 1-376)
chain: MRGKTFRFEMQRDLVSFPLSPAVRVKLVSAGFQTAEELLEVKPSELSKEVGISKAEALETLQIIRRECLTNKPRYAGTSESHKKCTALELLEQEHTQGFIITFCSALDDILGGGVPLMKTTEICGAPGVGKTQLCMQLAVDVQIPECFGGVAGEAVFIDTEGSFMVDRVVDLATACIQHLQLIAEKHKGEEHRKALEDFTLDNILSHIYYFRCRDYTELLAQVYLLPDFLSEHSKVRLVIVDGIAFPFRHDLDDLSLRTRLLNGLAQQMISLANNHRLAVILTNQMTTKIDRNQALLVPALGESWGHAATIRLIFHWDRKQRLATLYKSPSQKECTVLFQIKPQGFRDTVVTSACSLQTEGSLSTRKRSRDPEEEL

Legend:
[1] = biological target: T1, FLAG-HA epitope-tagged HELQ (human); test: co-IP; FLAG-HA-tagged bait stably expressed in HeLa S3; sequential anti-FLAG and anti-HA immunoprecipitation from nuclear extract; immunoblotting with specific antibodies; for HELQ with or without MMC (100 ng/ml, 18 h) and with or without Benzonase (50 U/ml)
HELQ K365M (human) = biological target: T2, HELQ K365M (human); test: co-IP; HEK293T transiently co-transfected; sonicated whole-cell extract; anti-GFP agarose, 4 h, 4 °C, with or without 50 U/ml Benzonase; washes in 100 mM KCl buffer; immunoblotting
[2] = biological target: T3, GFP-tagged HELQ (HEK293T) (human); test: as above
[3] = biological target: T4, FLAG-HA epitope-tagged XRCC2; test: co-IP; FLAG-HA-tagged bait stably expressed in HeLa S3; sequential anti-FLAG and anti-HA immunoprecipitation from nuclear extract; immunoblotting with specific antibodies; for HELQ with or without MMC (100 ng/ml, 18 h) and with or without Benzonase (50 U/ml)

Row | Molecule | binding [1] | binding [2] | also measured
1 | ATR (endogenous, HeLa S3) (from UniProt Q13535 1-2644) (enzyme) | binds | – | –
2 | ATR (endogenous, HEK293T) (from UniProt Q13535 1-2644) (enzyme) | – | binds | binding (HELQ K365M (human)): binds
3 | B1 | binds | – | –
4 | B2 | – | – | binding [3]: binds
5 | B3 | – | binds | binding (HELQ K365M (human)): binds
6 | B4 | – | binds | –
7 | B5 | – | binds | –
8 | B6 | binds | – | –
9 | B7 | binds | – | –
